In the assay the test system is CD2F1 mice, L1210 leukemia ip, survival T/C. The assay is described as follows: NCI In Vivo Anticancer Drug Screen. Data for tumor model L1210 Leukemia (intraperitoneal) in CD2F1 (CDF1) mice. To be noted: higher T/C = longer survival. Put shortly:
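Transplantable tumor in mice; compound-treated vs vehicle-treated groups. Read-out = treated/control ratio of the measured endpoint.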

Where [1] appears, read: T/C endpoint: mean survival time, dose: 400.0 mg/kg/injection, schedule: Q04DX002 (ip), vehicle: saline with Tween-80.
The mark [2] stands for this setting: T/C endpoint: mean survival time, dose: 25.0 mg/kg/injection, schedule: Q01DX009 (ip), vehicle: saline with Tween-80.
[3] abbreviates: T/C endpoint: mean survival time, dose: 100.0 mg/kg/injection, schedule: Q01DX009 (ip), vehicle: saline with Tween-80.
[4] abbreviates: T/C endpoint: mean survival time, dose: 200.0 mg/kg/injection, schedule: Q01DX009 (ip), vehicle: saline with Tween-80.
Where [5] appears, read: T/C endpoint: mean survival time, dose: 400.0 mg/kg/injection, schedule: Q01DX009 (ip), vehicle: saline with Tween-80.
[6] abbreviates: T/C endpoint: mean survival time, dose: 100.0 mg/kg/injection, schedule: Q04DX003 (ip), vehicle: saline with Tween-80.
Where [7] appears, read: T/C endpoint: mean survival time, dose: 200.0 mg/kg/injection, schedule: Q04DX002 (ip), vehicle: saline with Tween-80.
Where [8] appears, read: T/C endpoint: mean survival time, dose: 150.0 mg/kg/injection, schedule: Q01DX001 (ip), vehicle: saline.
The mark [9] stands for this setting: T/C endpoint: mean survival time, dose: 300.0 mg/kg/injection, schedule: Q01DX001 (ip), vehicle: saline.
Setting [10] is: T/C endpoint: mean survival time, dose: 400.0 mg/kg/injection, schedule: Q01DX001 (ip), vehicle: Klucel (hydroxypropylcellulose) (HPC).
[11] abbreviates: T/C endpoint: mean survival time, dose: 400.0 mg/kg/injection, schedule: Q04DX003 (ip), vehicle: saline with Tween-80.
[12] abbreviates: T/C endpoint: mean survival time, dose: 400.0 mg/kg/injection, schedule: Q04DX003 (ip), vehicle: saline.

Structures are written as SMILES. The list is a part of this screen's results and no random one: it is rich in T/C values a quarter to a half above the control, in often repeated tests (any T/C) and in doses without a T/C. Other doses and runs of a compound stand elsewhere. T/C is the treated group as % of the vehicle group. Some entries give survivors of the animals treated and no T/C: the source holds a T/C of zero for them, seemingly a mark for toxic or unscored doses. Some doses without a T/C left all or most animals alive at the check, yet need not have been tolerated: the source hardly ever lists a survival T/C far under the control, and the zero likely stands for such cases as well. Survivors were counted at the toxicity check, usually on the fifth day, unless a day is given; later deaths do not show. Schedules are NCI's codes, taken here to give the interval after Q, in days (D) or hours (H), and the number of doses after X. Marks such as (2×) give the number of equal values in this list. For survival time, the PubChem record calls one and a half times the control and up active, and a quarter to a half above the control has no call in these data; cut-offs in other NCI protocols can differ.

Turning to `O=NNc1cccnc1`, the survivor count is, setting by setting: (T/C endpoint: median survival time, dose: 50.0 mg/kg/injection, schedule: Q01DX009 (ip), vehicle: water) 4 of 6; (T/C endpoint: median survival time, dose: 100.0 mg/kg/injection, schedule: Q01DX009 (ip), vehicle: water) 0 of 6.

Turning to `NC(=S)N/N=C1\CC2CC1C1C=CCC21` (stereo unspecified), the survivor count under setting [1] is recorded as 0 of 3.

Turning to `CCCCCCC[CH2][Sn]1([CH2]CCCCCCC)[O]C2C(CO)OC(n3ccc(N)nc3=O)C2[O]1` (stereo unspecified), under “T/C endpoint: mean survival time, dose: 200.0 mg/kg/injection, schedule: Q01DX005 (ip), vehicle: other”, the survivor count is 0 of 6.

As for `CCC(O)C[As](=O)(O)c1ccc(Cl)cc1` (stereo unspecified), the survivor count is 0 of 6 under setting [2]; 0 of 6 (T/C endpoint: mean survival time, dose: 50.0 mg/kg/injection, schedule: Q01DX009 (ip), vehicle: saline with Tween-80); 0 of 6 (2×) under setting [3]; 1 of 6 under setting [4]; 0 of 6 under setting [5].

For `C[n+]1c(/C=C/c2ccc([N+](=O)[O-])cc2)ccc2ccccc21`, the survivor count is 6 of 6 under setting [2]; 1 of 6 (T/C endpoint: mean survival time, dose: 50.0 mg/kg/injection, schedule: Q04DX003 (ip), vehicle: saline with Tween-80); 0 of 6 under setting [6].

On to `O=C1CNC(=O)N1c1cccc(Cl)c1`, for which the survivor count under setting [5] is 2 of 6.

With `Cc1ccc(S(=O)(=O)N=N/C=C2/C=CC=CN2O)cc1`, the T/C is 125 % of control (T/C endpoint: mean survival time, dose: 80.0 mg/kg/injection, schedule: Q01DX009 (ip), vehicle: Klucel (hydroxypropylcellulose) (HPC)) and 126 % of control (T/C endpoint: mean survival time, dose: 175.0 mg/kg/injection, schedule: Q01DX009 (ip), vehicle: Klucel (hydroxypropylcellulose) (HPC)).

On to `Cc1ccc(S(=O)(=O)C[n+]2ccc(C(=O)c3ccccc3)cc2)cc1`, for which the survivor count under setting [7] is reported as 0 of 3 and the survivor count under setting [1] is 0 of 3.

As to `CN(C)C(=O)N(c1ccccc1)c1ccccc1`, under setting [1], the survivor count is 1 of 3.

Consider `Nc1nc(Br)nc2c1ncn2C1OC(CO)C(O)C1O` (stereo unspecified), for which the survivor count is 1 of 6 under setting [8] and 0 of 6 under setting [9].

With `Cc1cc(N=C(N)N)ccc1C(=O)Oc1ccc([N+](=O)[O-])cc1`, the survivor count reads like this: (T/C endpoint: mean survival time, dose: 100.0 mg/kg/injection, schedule: Q01DX009 (ip), vehicle: other) 0 of 6; (T/C endpoint: mean survival time, dose: 200.0 mg/kg/injection, schedule: Q01DX009 (ip), vehicle: other) 0 of 6.

For the compound `CC(=O)OC1CCCCC1C` (stereo unspecified), the survivor count under setting [5] is 1 of 6.

With `C=C(C)CNC1=C(C)C(=O)C2=C(C1=O)[C@@H](COC(N)=O)[C@]1(OC)[C@@H]3N[C@@H]3CN21`, the T/C reads like this: (T/C endpoint: mean survival time, dose: 24.0 mg/kg/injection, schedule: Q01DX001 (ip), vehicle: distilled water + Tween-80) 140 % of control; (T/C endpoint: mean survival time, dose: 24.0 mg/kg/injection, schedule: Q01DX001 (ip), vehicle: water) 126 % of control.

`Nc1ncnc2nc(SCc3ccccc3)[nH]c12`: the survivor count (T/C endpoint: mean survival time, dose: 200.0 mg/kg/injection, schedule: Q01DX001 (ip), vehicle: Klucel (hydroxypropylcellulose) (HPC)) is on record as 0 of 6 and the survivor count under setting [10] was 0 of 6.

`COc1ccccc1NC(=O)N(CCCl)N=O`: the T/C (T/C endpoint: mean survival time, dose: 2.3 mg/kg/injection, schedule: Q01DX009 (ip), vehicle: carboxymethylcellulose (CMC)) is 129 % of control.

Take `CN(C)C(=S)Oc1ccc(S(=O)(=O)F)c(Cl)c1Cl`: the survivor count under setting [7] is on record as 3 of 3.

As to `O=S(=O)(F)c1cc(C[P+](c2ccccc2)(c2ccccc2)c2ccccc2)ccc1Cl`, the survivor count reads like this: under setting [6], 2 of 6; (T/C endpoint: mean survival time, dose: 200.0 mg/kg/injection, schedule: Q04DX003 (ip), vehicle: saline with Tween-80) 0 of 6; under setting [11], 0 of 6.

Consider `CC(C(=O)O)C(C(=O)O)C(=O)O` (stereo unspecified), for which the survivor count under setting [12] is 2 of 6.

For `C/C=C(/Cl)C(=O)O`, the survivor count (T/C endpoint: mean survival time, dose: 400.0 mg/kg/injection, schedule: Q01DX001 (ip), vehicle: saline with Tween-80) is 1 of 6.

Take `O=C(O)C(=O)C(Cl)Br` (stereo unspecified): the survivor count (T/C endpoint: mean survival time, dose: 100.0 mg/kg/injection, schedule: Q01DX001 (ip), vehicle: saline) was 1 of 3; the survivor count (T/C endpoint: mean survival time, dose: 200.0 mg/kg/injection, schedule: Q01DX001 (ip), vehicle: saline) is given as 0 of 3; the survivor count (T/C endpoint: mean survival time, dose: 400.0 mg/kg/injection, schedule: Q01DX001 (ip), vehicle: saline) is 0 of 3.

As for `CC([NH-])CC[NH-].O=S(=O)(O)O.[Pt+2]` (stereo unspecified), the T/C was 139 % of control (T/C endpoint: mean survival time, dose: 3.12 mg/kg/injection, schedule: Q04DX003 (ip), vehicle: saline) and 148 % of control (T/C endpoint: mean survival time, dose: 12.5 mg/kg/injection, schedule: Q04DX003 (ip), vehicle: saline).

In the case of `CCN(C(=O)CCl)c1ccccc1C`, the survivor count under setting [11] is given as 0 of 6.

As to `O=C1OC(=O)C2=C1C1C3C=CCC3C2N2C=CC=CC12` (stereo unspecified), under setting [10], the survivor count is 3 of 6.

`CC(=O)CC(C)=O.CC(=O)CC(C)=O.O.O.[Co]`: the survivor count runs as follows: (T/C endpoint: mean survival time, dose: 75.0 mg/kg/injection, schedule: Q04DX003 (ip), vehicle: saline with Tween-80) 0 of 6; (T/C endpoint: mean survival time, dose: 100.0 mg/kg/injection, schedule: Q04DX003 (ip), vehicle: saline) 3 of 6; (T/C endpoint: mean survival time, dose: 200.0 mg/kg/injection, schedule: Q04DX003 (ip), vehicle: saline) 0 of 6; under setting [12], 0 of 6. For the same compound, the T/C (T/C endpoint: mean survival time, dose: 75.0 mg/kg/injection, schedule: Q04DX003 (ip), vehicle: saline) was 125 % of control.

Turning to `CCC(=O)/C(=C\c1ccccc1Cl)C(C)=O`, the survivor count under setting [5] is 5 of 6.

Consider `O=C(O)CCC(NC(=O)COc1ccc(Cl)cc1Cl)C(=O)O` (stereo unspecified), for which the survivor count under setting [7] is 3 of 3.

As for `CCCC(C#CCN(C)C)N(C)C` (stereo unspecified), the survivor count is on record as 6 of 6 (T/C endpoint: mean survival time, dose: 100.0 mg/kg/injection, schedule: Q01DX009 (ip), vehicle: saline); 0 of 6 (T/C endpoint: mean survival time, dose: 200.0 mg/kg/injection, schedule: Q01DX009 (ip), vehicle: saline); 0 of 6 (T/C endpoint: mean survival time, dose: 400.0 mg/kg/injection, schedule: Q01DX009 (ip), vehicle: saline).

For `CC(Cl)CN(CC(C)Cl)c1ccc(S(=O)(=O)Nc2ncccn2)cc1` (stereo unspecified), the T/C is 125 % of control (T/C endpoint: mean survival time, dose: 53.0 mg/kg/injection, schedule: Q01DX009 (ip), vehicle: other) and 125 % of control (T/C endpoint: mean survival time, dose: 80.0 mg/kg/injection, schedule: Q01DX009 (ip), vehicle: other). Also, the survivor count is listed as 3 of 6 (T/C endpoint: mean survival time, dose: 120.0 mg/kg/injection, schedule: Q01DX009 (ip), vehicle: other) and 2 of 6 (T/C endpoint: mean survival time, dose: 180.0 mg/kg/injection, schedule: Q01DX009 (ip), vehicle: other).

Take `OCCN1CCCCCCC1`: the survivor count under setting [9] is reported as 0 of 6.

Regarding `CC(=O)C(CN(C)C)c1ccccc1` (stereo unspecified), the survivor count under setting [12] is listed as 2 of 6.

As for `O=[N+]([O-])c1cc(S(=O)(=O)c2ccc(F)c([N+](=O)[O-])c2)ccc1F`, the survivor count runs as follows: (T/C endpoint: mean survival time, dose: 50.0 mg/kg/injection, schedule: Q01DX009 (ip), vehicle: Klucel (hydroxypropylcellulose) (HPC)) 0 of 3; (T/C endpoint: mean survival time, dose: 100.0 mg/kg/injection, schedule: Q01DX009 (ip), vehicle: Klucel (hydroxypropylcellulose) (HPC)) 0 of 3; (T/C endpoint: mean survival time, dose: 200.0 mg/kg/injection, schedule: Q01DX009 (ip), vehicle: Klucel (hydroxypropylcellulose) (HPC)) 0 of 3.

For `Cc1oc2c(C)c3oc(=O)cc(C)c3cc2c1CCl`, the survivor count by setting is: under setting [3], 4 of 6; under setting [4], 0 of 6; under setting [5], 0 of 6.

`O=C(O)CCc1ccccc1-c1ccccc1`: the T/C under setting [1] was 125 % of control.

As to `Nc1cc(C(Br)(Br)Br)nc2ccccc12`, the survivor count reads like this: under setting [8], 2 of 6; under setting [9], 0 of 6.

These data come from PubChem BioAssay AID256 (DTP/NCI, 2004).
